{"source": "patent US12655385B2", "about": "“Cell culture compositions with antioxidants and methods for polypeptide production” (Genentech, Inc., priority 2013, dated 2026)", "note": "Some entries repeat one wording, which the source may state once for all of them.", "data": [{"test_system": "IgG1 monoclonal antibody", "assay": "Antioxidant screening: incubation of Media 1/Media 2 mixture spiked with antibody, color intensity of purified antibody", "details": "1X test concentration in Media 1 + Media 2 mixture, 2 g/L IgG1 mAb, 5 days 37° C. 250 rpm; normalized to positive control (FIG. 1, FIG. 2)", "procedure": "For antioxidant screening, a total volume of 40 ml media was prepared by mixing 1 part basal Media 1 and 0.3 part feed Media 2 to mirror a representative ratio of media used in cell culture conditions (Table 5). […] The samples were incubated at 37° C. with shaking at 250 rpm for a five day incubation period.\nAfter incubation, the monoclonal antibody was purified using affinity chromatography. Color intensity of the concentrated antibody composition was measured in the purified pool using an assay wherein higher numerical values indicate higher color intensity and lower numerical values indicate lower color intensity. The numerical results were normalized to the positive control, where the value for the positive control was set at 0% change in color intensity.", "values": [{"smiles": "NCCS", "note": "[cysteamine, 2-aminoethane-1-thiol]", "color of the antibody composition (direction of change)": "increase the color of the antibody composition"}, {"smiles": "CC(S)C(=O)NCC(=O)O", "note": "(stereo not drawn) [mercaptopropionyl glycine, 2-(2-sulfanylpropanamido)acetic acid]", "color of the antibody composition (direction of change)": "increase the color of the antibody composition"}, {"smiles": "O=C(O)CCCC[C@@H]1CCSS1", "note": "[lipoic acid, 5-[(3R)-1,2-dithiolan-3-yl]pentanoic acid]", "color of the antibody composition (direction of change)": "reduce the color of the antibody composition"}, {"smiles": "C[C@]12CCC(=O)C=C1CC[C@@H]1[C@@H]2[C@@H](O)C[C@@]2(C)[C@H]1CC[C@]2(O)C(=O)CO", "note": "[hydrocortisone, (1S,2R,10S,11S,14R,15S,17S)-14,17-dihydroxy-14-(2-hydroxyacetyl)-2,15-dimethyltetracyclo[8.7.0.0^{2,7}.0^{11,15}]heptadec-6-en-5-one, reference compound]", "color of the antibody composition (direction of change)": "increase the color of the antibody composition"}, {"smiles": "NCCC(=O)N[C@@H](Cc1cnc[nH]1)C(=O)O", "note": "[carnosine, (2S)-2-(3-aminopropanamido)-3-(1H-imidazol-5-yl)propanoic acid]", "color of the antibody composition (direction of change)": "reduce the color of the antibody composition"}, {"smiles": "C[C@@H]1O[C@@H](Oc2c(-c3ccc(O)c(O)c3)oc3cc(O)cc(O)c3c2=O)[C@H](O)[C@H](O)[C@H]1O", "note": "[quercitrin hydrate, 2-(3,4-dihydroxyphenyl)-5,7-dihydroxy-3-{[(2S,3R,4R,5R,6S)-3,4,5-trihydroxy-6-methyloxan-2-yl]oxy}-4H-chromen-4-one]", "color of the antibody composition (direction of change)": "reduce the color of the antibody composition"}, {"smiles": "COc1ccc(O)c(C(C)(C)C)c1", "note": "[butylated hydroxyanisole, 2-tert-butyl-4-methoxyphenol]", "color of the antibody composition (direction of change)": "reduce the color of the antibody composition"}, {"smiles": "O=C([O-])c1cc(O)ccc1O.[Na+]", "note": "[gentisic acid, sodium 2,5-dihydroxybenzoate]", "color of the antibody composition (direction of change)": "increase the color of the antibody composition"}, {"smiles": "Cn1cncc1C[C@H](NC(=O)CCN)C(=O)O.O=[N+]([O-])O", "note": "[anserine, (2S)-2-(3-aminopropanamido)-3-(1-methyl-1H-imidazol-5-yl)propanoic acid; nitric acid]", "color of the antibody composition (direction of change)": "reduce the color of the antibody composition"}]}]}
